Results are given in words; binding and its absence hold for the method and conditions named. In cells and extracts the contact can be indirect. Here binding means that the protein was enriched with, or labelled near, the bait; the list need not be complete.
Molecular target: Net39-miniTurbo (nuclear envelope transmembrane protein 39 with the biotin ligase miniTurbo at the C-terminus) (mouse) (UniProt Q91WB2)
Test: proximity labelling; BioID: Net39-miniTurbo in C2C12 myotubes, 500 µM biotin for 4 h against no biotin; lysis in 6 M urea, 10% SDS; streptavidin magnetic beads; biotinylated proteins detected by western blot

The chains behind the UniProt entries cited, without tags or fusion partners.
UniProt Q91WB2: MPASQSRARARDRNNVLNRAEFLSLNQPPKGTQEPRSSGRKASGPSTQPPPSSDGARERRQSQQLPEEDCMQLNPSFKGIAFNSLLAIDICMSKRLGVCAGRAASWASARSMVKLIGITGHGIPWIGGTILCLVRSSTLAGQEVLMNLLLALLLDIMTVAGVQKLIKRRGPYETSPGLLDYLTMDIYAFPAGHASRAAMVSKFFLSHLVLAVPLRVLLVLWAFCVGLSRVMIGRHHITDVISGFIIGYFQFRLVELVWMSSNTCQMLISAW

binding: binds
B1: SUN2 (protein, UniProt Q8BJS4 1-731)
chain: MSRRSQRLTRYSQDDNDGGSSSSGASSVAGSQGTVFKDSPLRTLKRKSSNMKHLSPAPQLGPSSDSHTSYYSESVVRESYIGSPRAVSLARSALLDDHLHSEPYWSGDLRGRRRRGTGGSESSKANGLTAESKASEDFFGSSSGYSSEDDLAGYTDSDQHSSGSRLRSAASRAGSFVWTLVTFPGRLFGLLYWWIGTTWYRLTTAASLLDVFVLTRSRHFSLNLKSFLWFLLLLLLLTGLTYGAWHFYPLGLQTLQPAVVSWWAAKESRKQPEVWESRDASQHFQAEQRVLSRVHSLERRLEALAADFSSNWQKEAIRLERLELRQGAAGHGGGSSLSHEDALSLLEGLVSRREATLKEDLRRDTVAHIQEELATLRAEHHQDSEDLFKKIVQASQESEARVQQLKTEWKSMTQEAFQESSVKELGRLEAQLASLRQELAALTLKQNSVADEVGLLPQKIQAARADVESQFPDWIRQFLLGDRGARSGLLQRDEMHAQLQELENKILTKMAEMQGKSAREAAASLGQILQKEGIVGVTEEQVHRIVKQALQRYSEDRIGMVDYALESGGASVISTRCSETYETKTALLSLFGIPLWYHSQSPRVILQPDVHPGNCWAFQGPQGFAVVRLSARIRPTAVTLEHVPKALSPNSTISSAPKDFAIFGFDEDLQQEGTLLGTFAYDQDGEPIQTFYFQASKMATYQVVELRILTNWGHPEYTCIYRFRVHGEPAH

Source: article PMC7846557
